Data on 2 molecules can be found in PMC6372715.

Amino acid sequences for entries named in this document (tags omitted).
UniProt Q9UQC2: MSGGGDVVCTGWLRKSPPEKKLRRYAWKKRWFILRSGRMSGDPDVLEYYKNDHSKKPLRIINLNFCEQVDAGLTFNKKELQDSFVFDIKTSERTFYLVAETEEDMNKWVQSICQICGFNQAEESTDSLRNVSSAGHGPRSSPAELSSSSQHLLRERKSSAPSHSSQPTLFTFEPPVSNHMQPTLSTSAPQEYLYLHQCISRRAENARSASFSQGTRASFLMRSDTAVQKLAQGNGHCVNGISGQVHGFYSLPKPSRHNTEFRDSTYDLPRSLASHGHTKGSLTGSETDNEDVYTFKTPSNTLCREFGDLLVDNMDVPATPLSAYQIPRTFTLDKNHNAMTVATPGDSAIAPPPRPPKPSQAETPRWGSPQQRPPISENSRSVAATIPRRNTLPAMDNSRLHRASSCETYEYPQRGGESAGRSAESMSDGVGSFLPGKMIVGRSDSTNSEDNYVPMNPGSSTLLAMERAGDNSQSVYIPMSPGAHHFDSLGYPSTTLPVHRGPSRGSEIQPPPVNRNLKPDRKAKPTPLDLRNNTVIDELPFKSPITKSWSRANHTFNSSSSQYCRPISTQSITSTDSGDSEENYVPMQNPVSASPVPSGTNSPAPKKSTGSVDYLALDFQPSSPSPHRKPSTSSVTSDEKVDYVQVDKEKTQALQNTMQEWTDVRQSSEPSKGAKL

Results are given in words; binding and its absence hold for the method and conditions named. In cells and extracts the contact can be indirect. Some results given as binding are weak or reduced against the parent protein; the word gives no strength.

In experiment [1] the target is Grb2-associated binder 2 (Gab2) (human (endogenous in SKOV3 and OAW28)) (UniProt Q9UQC2). Put plainly: proximity ligation; Duolink PLA in fixed, permeabilised SKOV3 cells transfected with PIK3R1 siRNA or controls; pairs of primary antibodies; spots per nucleus counted.
Experiment [2] has the same target. Put plainly: co-IP; immunoprecipitation with and without PIK3R1 depletion (Supplementary Fig. 5d/5e); cell line and precipitating antibody not told in the text shown.
Experiment [3] addresses T1, Grb2-associated binder 2 (Gab2) (human (endogenous in SKOV3 and OAW28)), Q9UQC2. Described as above. Conditions: remark: other sources report otherwise.
For experiment [4], the target named is T1, Grb2-associated binder 2 (Gab2) (human …). The experiment in a line: proximity ligation; Duolink PLA in fixed, permeabilised SKOV3 cells transfected with PIK3R1 siRNA or controls; pairs of primary antibodies; spots per nucleus counted. The note with it: remark: other sources report otherwise.

B1: 14-3-3γ (protein, UniProt P61981 1-247)
chain: MVDREQLVQKARLAEQAERYDDMAAAMKNVTELNEPLSNEERNLLSVAYKNVVGARRSSWRVISSIEQKTSADGNEKKIEMVRAYREKIEKELEAVCQDVLSLLDNYLIKNCSETQYESKVFYLKMKGDYYRYLAEVATGEKRATVVESSEKAYSEAHEISKEHMQPTHPIRLGLALNYSVFYYEIQNAPEQACHLAKTAFDDAIAELDTLNEDSYKDSTLIMQLLRDNLTLWTSDQQDDDGGEGNN
B1: the binding entry in experiment [1] and in experiment [2] was “binds” each time.

B2: 14-3-3β, P31946 1-246 (protein)
chain: MTMDKSELVQKAKLAEQAERYDDMAAAMKAVTEQGHELSNEERNLLSVAYKNVVGARRSSWRVISSIEQKTERNEKKQQMGKEYREKIEAELQDICNDVLELLDKYLIPNATQPESKVFYLKMKGDYFRYLSEVASGDNKQTTVSNSQQAYQEAFEISKKEMQPTHPIRLGLALNFSVFYYEILNSPEKACSLAKTAFDEAIAELDTLNEESYKDSTLIMQLLRDNLTLWTSENQGDEGDAGEGEN
In the case of B2, the binding entry in experiment [3] and in experiment [4] was “binds” in each case.
